PubChem BioAssay AID504467 (National Center for Advancing Translational Sciences (NCATS), 2011)
The whole screen tested about 330,000 compounds, of which about 7,700 (2.3%) were called active. The shares of active, inactive and inconclusive entries below differ from those in the screen. Calls come from the whole dose curve; as a rule, active = well fitted inhibition curve with a large enough effect; inconclusive = small, poorly fitted or top-dose-only effect, or effect the other way; inactive = flat fitted curve, though single readings scatter. Potencies beside an inconclusive call are fits to weak or partial responses and may not hold up.
Potency is the fitted concentration of half-maximal effect.

Assay: qHTS screen for small molecules that inhibit ELG1-dependent DNA repair in human embryonic kidney (HEK293T) cells expressing luciferase-tagged ELG1; note: nearly all actives have a fitted effect of over 55% in size
Conditions: HEK293T ELG1-luciferase reporter, luminescence, 16 h, DNA damage induced by 5-fluorouridine; series mostly up to 46.1 µM
Summary of the method: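 Luminescence from the luciferase reporter, measured 30 min after ONE-Glo reagent at room temperature, was the read-out. Beforehand, 2,000 cells per well were exposed for 16 hr at 37 °C to 5-fluorouridine together with compound or vehicle.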
In the case of `CNC(=O)c1csc(-c2cccs2)n1`, the Potency is reported as inconclusive: 23.1 µM [activator, single point]. For `CSc1nc(-c2ccccc2)nn1C(=O)c1ccc(Cl)cc1`, the Potency was inconclusive: 18.4 µM [activator, partial curve]. With `FC(F)(F)c1cnc(COc2cc(Cl)cc(Cl)c2)c(Cl)c1` the Potency was inconclusive: 29.1 µM [inhibitor, single point]. In the case of `Cc1nc2c(s1)sc1ccccc12`, the Potency is reported as inconclusive: 20 µM [activator, single point]. With `Cn1c(/C=C/c2ccc(Br)cc2)c([N+](=O)[O-])c(=O)n(C)c1=O` the Potency was inconclusive: 23.1 µM [inhibitor, single point]. In the case of `O=C(N/N=C/c1ccsc1)c1c[nH]c2ccccc12`, the Potency is reported as inconclusive: 16.4 µM [activator, partial curve]. With `CC(SC1=NCCS1)C(=O)Nc1nnc(-c2ccc(Br)cc2)s1` (centres undefined) the Potency was inconclusive: 6.51 µM [activator, single point]. For `CCN(C(=O)CSc1nc(C)nc2sc(C)c(C)c12)c1ccc(F)cc1`, the Potency was “inactive”. For `c1csc(-c2nnc3ccccn23)c1`, the Potency was “inactive”. In the case of `CCCCCCCCCn1c2c(c(=N)c3c1CCC3)CCCC2`, the Potency is reported as inconclusive: 1.03 µM [inhibitor, partial curve, poor fit]. With `O=S(=O)(NCC(Nc1ccccc1)c1ccccc1)c1ccc(Cl)cc1` (centres undefined) the Potency was “inactive”. With `CCCc1nnc(NC(=O)c2ccc([N+](=O)[O-])cc2)s1` the Potency was inconclusive: 18.4 µM [activator, single point]. With `CCOc1ccccc1NC(=O)COC(=O)/C=C/c1cccs1` the Potency was inconclusive: 29.1 µM [inhibitor, single point]. For `Cn1c(=O)n(C)c2cc(NC(=O)COc3ccc(F)cc3)ccc21`, the Potency was inconclusive: 18.3 µM [activator, single point]. With `COc1ccc(-c2nc(-c3cccc(C)c3)nc(N3CCN(C)CC3)c2C#N)cc1` the Potency was “inactive”. With `Cc1cccc(NCc2ccccc2O)c1` the Potency was “inactive”. In the case of `O=C(NCc1cccnc1)C(=O)Nc1cc2c3c(c1)CC(=O)N3CCC2`, the Potency is reported as “inactive”. For `CN(C)c1nc(N)nc(CSc2nc3cc(Cl)ccc3o2)n1`, the Potency was inconclusive: 18.4 µM [activator, partial curve]. For `COc1ccc(-n2c(=O)[nH]c3cc(C(=O)NCCc4ccc(OC)c(OC)c4)ccc3c2=O)c(OC)c1`, the Potency was “inactive”. With `CC1CCCCC1NC(=O)COC(=O)c1c2c(nc3ccccc13)/C(=C/c1ccco1)CC2` (centres undefined) the Potency was inconclusive: 25.9 µM [inhibitor, partial curve]. With `Cn1c(CNC(=O)CNC(=O)Cc2ccccc2)cc(=O)n(C)c1=O` the Potency was “inactive”. For `CC(C)Cc1cc(C(=O)Nc2cccnc2)no1`, the Potency was inconclusive: 16.4 µM [activator, partial curve]. In the case of `COc1ccccc1NC(CC(=O)c1ccccc1)C(=O)OCC(=O)c1ccc(Br)cc1` (centres undefined), the Potency is reported as inconclusive: 4.11 µM [activator, partial curve]. With `Cc1c(S(=O)(=O)N2CCCCC2)c(=O)n(C)c(=O)n1C` the Potency was “inactive”. For `C#CCOCCOCCOCCNc1nc(N2CCN(C(=O)[C@H](CCCCN)n3cc([C@@H](N)CC(N)=O)nn3)CC2)nc(N2CCN(C(=O)[C@H](CCCCN)n3cc([C@@H](N)CC(N)=O)nn3)CC2)n1`, the Potency was inconclusive: 20.6 µM [activator, partial curve, poor fit]. For `CCOc1cc(S(=O)(=O)NC2CCCCC2)ccc1F`, the Potency was inconclusive: 7.31 µM [inhibitor, partial curve, poor fit]. For `CCCC(C)C(=O)Nc1nc(C)c(-c2csc(Nc3ccccc3OC)n2)s1` (centres undefined), the Potency was inconclusive: 16.4 µM [inhibitor, partial curve, poor fit]. In the case of `Nc1cc(=O)[nH]c(=S)n1-c1cccc(C(F)(F)F)c1`, the Potency is reported as inconclusive: 32.6 µM [inhibitor, partial curve, poor fit]. With `CC1CCCN(C(=O)C(=O)c2cn(CC(=O)N3CCCCCC3)c3ccccc23)C1` (centres undefined) the Potency was “inactive”. With `Cc1ccc2[nH]c3c(c2c1)CN(C(=O)CN1CCN(c2ccccn2)CC1)CC3` the Potency was inconclusive: 29.1 µM [inhibitor, single point]. In the case of `Cc1cc(Nc2ccc(F)cc2F)n2ncnc2n1`, the Potency is reported as inconclusive: 29.1 µM [activator, single point]. In the case of `Clc1cccc(N2CCN(c3nnnn3-c3ccccc3)CC2)c1`, the Potency is reported as “inactive”. For `CSc1ccc(CN(C)C(=O)C(Cc2ccccc2)NC(=O)c2ccccc2)cc1` (centres undefined), the Potency was inconclusive: 16.4 µM [activator, partial curve]. For `O=C(NNC(=O)c1ccccc1F)c1ccc2[nH]c(=O)c(=O)[nH]c2c1`, the Potency was inconclusive: 23.1 µM [activator, single point]. With `Cc1ccc(/C=C2/NC(=O)N(Cc3ccccc3)C2=O)s1` the Potency was inconclusive: 4.61 µM [activator, single point]. For `C=CCC[C@H](Cc1ccc(F)cc1)C(=O)OC[C@@H](C)NC(=O)[C@@H](CC=C)CC(=O)N[C@@H](CO)Cc1ccccc1`, the Potency was “inactive”. For `CS(=O)(=O)N1Cc2ccccc2CC1C(=O)O` (centres undefined), the Potency was “inactive”. With `CCOC(=O)c1ccc(-c2c(-c3ccccc3OC)sc3cc4c(cc23)OCO4)cc1F` the Potency was inconclusive: 18.3 µM [activator, single point]. With `Cc1cc(SCC(=O)c2ccc(O)c(O)c2)n2nc(C)c(-c3ccccc3)c2n1` the Potency was inconclusive: 18.3 µM [inhibitor, single point]. For `Cc1cc(C)cc(NS(=O)(=O)c2csc(C(N)=O)c2)c1`, the Potency was inconclusive: 10.3 µM [inhibitor, partial curve]. With `CC(=O)c1sc(NC(=O)C=C(C)C)nc1C` the Potency was inconclusive: 16.4 µM [activator, partial curve]. With `COc1ccc(Nc2nc(-c3cccs3)cs2)c(OC)c1` the Potency was inconclusive: 8.2 µM [activator, partial curve]. For `O=[N+]([O-])c1cc(-c2nnc(N3CCOCC3)c3ccccc23)ccc1N1CCOCC1`, the Potency was inconclusive: 23.1 µM [inhibitor, partial curve]. With `Cc1ccc(-n2c(N)c(C(=O)NCc3ccco3)sc2=S)cc1` the Potency was “inactive”. With `COc1cccc(-c2nn(-c3ccccc3)cc2/C=C(\C#N)C(=O)NCCCn2ccnc2)c1` the Potency was inconclusive: 29.1 µM [inhibitor, single point]. With `NC(=O)NC(=O)C(Nc1ccc(N2CCCCC2)cc1)c1ccccc1` (centres undefined) the Potency was inconclusive: 18.3 µM [activator, partial curve]. With `CCOc1ccc(N=C2NC(=O)S/C2=C\c2ccc(N(C)C)cc2)cc1` the Potency was inconclusive: 14.6 µM [activator, single point]. With `COc1ccc2nc(NC(=O)CC3Oc4ccccc4NC3=O)sc2c1` (centres undefined) the Potency was inconclusive: 25.9 µM [activator, single point]. With `COc1ccc(OC)c(CNc2nc3ccccc3n2CCN2CCCCC2)c1` the Potency was inconclusive: 29.1 µM [inhibitor, single point]. With `Cc1cc(C)c2c(CN3CCC(C)CC3)cc(=O)oc2c1` the Potency was inconclusive: 20.6 µM [activator, partial curve]. For `O=C(Nc1ccc2c(c1)CCC2)Nc1ccc(F)cc1F`, the Potency was inconclusive: 4.61 µM [activator, partial curve]. For `O=C(CSc1nncs1)NC1CCCCCCC1`, the Potency was inconclusive: 35.5 µM [activator, partial curve, poor fit]. In the case of `Cc1ccc(C(=O)N2CCN(c3ccc(NC(=O)c4cccs4)cc3)CC2)cc1`, the Potency is reported as active: 9.2 µM. In the case of `CC(CN1CCOCC1)OC(=O)c1ccccc1Cl` (centres undefined), the Potency is reported as “inactive”. In the case of `Brc1ccccc1-c1nnc(CSc2nnnn2-c2ccccc2)o1`, the Potency is reported as inconclusive: 18.4 µM [activator, partial curve, poor fit]. With `COc1cccc2cc(C(=O)N3CCc4ccccc4C3)c(=O)oc12` the Potency was inconclusive: 20.6 µM [activator, partial curve]. With `O=C(NCc1ccccn1)c1ccc2ccccc2n1` the Potency was inconclusive: 23.1 µM [activator, single point]. For `c1ccc(-c2ncnc3cc4n(c23)CCC4)cc1`, the Potency was inconclusive: 23.1 µM [inhibitor, partial curve]. In the case of `CC(=O)Nc1ccc(Nc2cc(C)nc3c(-c4ccc(Cl)cc4)c(C)nn23)cc1`, the Potency is reported as “inactive”. For `COc1cc(Cl)c(C)cc1NC(=O)CSC`, the Potency was “inactive”. In the case of `CC(C)(C)Sc1ccc2nc3c(n2c1)CCCC3`, the Potency is reported as inconclusive: 9.2 µM [activator, partial curve, poor fit]. In the case of `Cc1ccc(NC(=O)NCc2c(C)nn(C)c2C)cc1Cl`, the Potency is reported as inconclusive: 16.4 µM [activator, partial curve]. With `O=C(Nc1ccc(NC(=O)c2ccc([N+](=O)[O-])cc2[N+](=O)[O-])cc1)c1ccco1` the Potency was inconclusive: 29.1 µM [activator, single point]. For `CCOc1ccc(NC(=O)c2nn(C)cc2Br)cc1`, the Potency was inconclusive: 18.4 µM [activator, partial curve]. For `COc1ccc(C2(O)CCN(CC(=O)Nc3nccs3)CC2)c(OC)c1`, the Potency was inconclusive: 9.2 µM [inhibitor, partial curve, poor fit]. For `CC(=O)Nc1cccc(-c2cc(C)c3cc4c(cc3n2)OCO4)c1`, the Potency was inconclusive: 14.6 µM [activator, partial curve]. With `COCc1cc(C)c(C#N)c(=S)[nH]1` the Potency was “inactive”. In the case of `Cn1c(=O)c2c(nc(NCc3ccccc3)n2Cc2ccc(F)cc2)n(C)c1=O`, the Potency is reported as inconclusive: 23.1 µM [inhibitor, partial curve, poor fit]. In the case of `CN1C(=O)[C@H]2[C@@H](c3ccc(F)cc3)N3C(=O)c4ccccc4NC(=O)[C@@]3(C)[C@H]2C1=O`, the Potency is reported as inconclusive: 7.3 µM [activator, partial curve, poor fit].
